## Primary screen of a compound library

Data taken from ChEMBL document CHEMBL3988442, “University of Dundee, Small-Polar-MMV Screening Library” (2021).

Mtb glucose medium: 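Growth of Mycobacterium tuberculosis over 3 days (7H9 medium with glucose and tyloxapol); the read-out is not stated. Tested at 50 µM. Direction is inferred from retests: higher values go with more growth inhibition. Of about 69,000 compounds tested this way, about 760 (1.1%) reached 50% or more in at least one test.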
Mtb cholesterol medium: 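Growth of Mycobacterium tuberculosis over 4 days (cholesterol / DPPC medium with tyloxapol); the read-out is not stated. Concentration: 50 µM. Direction is inferred from retests: higher values go with more growth inhibition. Of about 69,000 compounds tested this way, about 370 (0.54%) reached 50% or more in at least one test.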

The filed quantity is “Percent Effect” (%). How 0% and 100% were set is not recorded. Most values in the screen are low, and negative values occur. Compounds were drawn at random from those tested, without regard to their results. Two or more numbers in one place are separate tests of the same structure; such repeats can differ widely.

| compound | Mtb glucose medium | Mtb cholesterol medium |
|---|---|---|
| `O=C(O)C(F)(F)F.O=C(O)C(F)(F)F.O=C(O)C(F)(F)F.[H][C@@]12C[C@@H](Oc3cncnc3)CN1CCN(Cc1cccnc1)C2` | 15.92 | -7.843 |
| `CCc1nnc2n1CCN(C(=O)CCOc1cc(C)ccc1C)C2` | -2.772 | 5.623 |
| `O=C(O)C(F)(F)F.[H][C@]12CCC[C@@]1(COCC(=O)N1CCCC1)CN(C1CCC1)C2` | 16.46 | 6.675 |
| `O=C(O)C(F)(F)F.[H][C@@]12CCN(c3ccncn3)C[C@]1([H])O[C@@H](C(=O)NCc1ccco1)C2` | 11.34 | 19.77 |
| `COc1cc(-c2ccc(F)c3c2OC(CN)C3)cc(OC)c1OC` (configuration not stated) | 37.59 | 31.81 & 7.855 |
| `Cc1cc(C)c2nc(CN3CCOCC(O)C3)cc(O)c2c1` (configuration not stated) | 13.36 | 6.624 |
| `CCC1CN(C(=O)c2ccc(Cl)cc2O)CCN1C(C)C` (configuration not stated) | 4.168 | 5.264 |
| `CN(C)C(=O)CN1CCOCC2(CCN(CC3CCOCC3)CC2)C1.O=C(O)C(F)(F)F.O=C(O)C(F)(F)F` | -3.767 & 11.71 | -3.69 |
| `O=C(O)C(F)(F)F.[H][C@@]12CCN(Cc3nccs3)[C@]1([H])CC[C@H](C(=O)N1CCC(C)CC1)O2` | 8.541 | -0.5548 & -4.663 |
| `O=C(O)C(F)(F)F.O=C(O)C(F)(F)F.c1cncc(N2CCCC3(CN(Cc4cccs4)CCO3)C2)c1` (configuration not stated) | -11.52 | -26.9 |
| `O=C(c1ccc2nncn2c1)N1CCCC(n2ccnc2)C1` (configuration not stated) | 5.311 | -29.36 |
| `COCCOCCNC(=O)C(C)Oc1ccccc1C(F)(F)F` (configuration not stated) | -16.24 | 0.4709 & 48.47 |
| `Cc1ccc(-n2ccnc2-c2cn(C3CCNCC3)nn2)c(Cl)c1` | -4.516 | 6.747 |
| `CN(C)C(=O)c1cn[nH]c1C1CCCN1Cc1c[nH]cn1` (configuration not stated) | -12.86 | -0.5664 & 5.54 |
| `O=C(NCc1nnc2n1CCC2)c1cn(-c2cccc(Br)c2)nn1` | 5.592 | -4.967 |
| `O=C1CCNc2ccc(F)cc2CN1Cc1ccco1` | -15.4 | -25 |
| `O=C(O)C(F)(F)F.O=C(O)C(F)(F)F.O=C(O)C(F)(F)F.[H][C@@]12CN(Cc3ccncc3)C[C@]1([H])[C@@H](OC)CCN2Cc1c(C)noc1C` | 17.64 | 6.647 |
| `Cn1ccc(C(=O)N2CCCC(Cc3cnc4ccccc4c3)C2)n1` (configuration not stated) | 6.172 | -3.285 |
| `CCc1cnc(C)nc1NCc1cnc2c(c1)CCC2` | -1.763 | 5.185 & -6.671 |
| `COc1ccccc1OCc1cc(C(=O)N2CCN(C(C)=O)CC2)n[nH]1` | -7.153 | -14.55 |
| `CCOc1ccc(C#N)cc1NCC(=O)Nc1cc(F)ccc1F` | 16.05 | 0.4305 |
| `O=C(O)C(F)(F)F.O=C(c1ccc(F)cc1)N1CCC2(CCCN2CC2CC2)CC1` | -3.961 | 11.44 |
| `Cc1cccc(C2CC(=O)Nc3c2c(=O)[nH]n3C(C)C)c1` (configuration not stated) | -8.374 | -10.4 |
| `Cc1cc(C)n(CC2CN(c3cnc4ccccc4n3)CCO2)n1` (configuration not stated) | 35.13 | 23.72 |
| `CCN1CCCC(O)(CN(C)Cc2c(C)nn(C)c2C)C1` (configuration not stated) | 24.35 | -1.507 |
| `CN1C(=O)C2(CC(=O)Nc3[nH]ncc32)c2cc(Cl)ccc21` (configuration not stated) | 2.471 | -4.075 |
| `CNc1ncc(C(=O)N2CCCC(Cc3ccccc3OC)C2)s1` (configuration not stated) | -77.73 | -55.2 |
| `c1cncc(CN(Cc2ccc(-n3ccnc3)cc2)CC2CCCO2)c1` (configuration not stated) | -15.39 | 8.432 |
| `CC(C)c1ccc(S(=O)(=O)N2CCCC3(CCCN3S(C)(=O)=O)C2)cc1` (configuration not stated) | 21.04 | 19.26 |
| `Cc1cccc(-c2nnn3c2COC(CNCc2nccs2)C3)c1.O=C(O)C(F)(F)F` (configuration not stated) | 19.82 | -5.971 |
| `COc1cccc(NC(=O)N(CCC(F)(F)F)C[C@H](O)CO)c1` | -2.109 | -1.387 |
| `Cc1nn(C)c(N(C)C)c1CNCc1ccccc1Cn1cncn1` | 21.57 | 26.3 |
| `O=C(COc1ccc2c(c1)OCC2O)NCc1ccco1` (configuration not stated) | 16.34 | 11.56 |
| `COc1ccc(-c2n[nH]cc2CN2CCSCC2)c(OC)c1` | 19.15 | 12.82 |
| `Cc1cnn(CCNCC(O)c2ccc3c(c2)OCCO3)c1` (configuration not stated) | -34.93 | -5.602 |
| `CCOc1cc(NC(=O)N(C)Cc2ncnn2C)ccc1C` | -0.5658 | -6.329 |
| `O=C(Nc1cccn(CC(F)(F)F)c1=O)c1ccncc1F` | 16.17 | 8.327 |
| `O=C(C1CCCN(c2nc3ccccc3cc2CO)C1)N1CCCC1` (configuration not stated) | 5.976 & -2.247 | -16.43 |
| `CN(Cc1nc(COc2ccccc2)no1)CC1Cc2ccccc2O1` (configuration not stated) | 11.9 | 23.71 |
| `O=C(COc1coc(CN2CCCCC2)cc1=O)Nc1ccc(Cl)cc1` | 14.92 | 14.4 |
| `COc1cccc(C(O)Cn2ncc3ncccc3c2=O)c1` (configuration not stated) | 17.96 | 18.35 |
| `CCN(C(=O)COc1nc(Cc2ccc(F)cc2)no1)C1CC1` | 21.5 | 17 |
| `CCN1CC2(CC1=O)CN(Cc1ccccn1)CCN(C(C)=O)C2.O=C(O)C(F)(F)F.O=C(O)C(F)(F)F` (configuration not stated) | -7.989 | -11.01 & -5.191 |
| `F[C@@H]1CN(CC2CCCCC2)C[C@@H]1OCc1nc2ccccc2o1` | -31.16 & -5.431 | -20.43 |
| `COCCC(=O)Nc1cc(CC(C)(C)C)n[nH]1` | -2.819 | -4.137 |
| `CCOc1ccccc1N(C)Cc1nccn1C` | -42.59 | -22.51 |
| `COc1ncccc1NC(=O)NCC1CCS(=O)(=O)C1` (configuration not stated) | -2.856 | -12.61 |
| `CCOc1ccccc1C(C(=O)O)N(C)Cc1nc(C)c[nH]1` (configuration not stated) | 12.67 | 12.95 |
| `Cc1nc2c(c(NCc3cnc4c(c3)CCC4)n1)CNC2` | -9.739 | -3.388 & -11.5 |
| `[H][C@@]12CCCC[C@]1(O)CCN(C(=O)c1cc(CN(CC)CC)oc1C)C2` | 5.097 & 28.34 | 1.909 |
| `FC(F)(F)C1CN(c2nc(-c3ccccc3)no2)CCO1` (configuration not stated) | 0.6134 | -3.353 |
| `Cc1cc(F)ccc1OC1(C(=O)O)CCN(Cc2c[nH]cn2)CC1` | 3.293 & -3.944 | 2.55 |
| `Cc1noc(C)c1CCC(=O)N1CCCN(C)CC1` | 23.54 | 12.69 |
| `COc1cc(N2CC[C@@H](O)[C@@H]2Cc2ccncc2)ncn1.O=C(O)C(F)(F)F` | 5.432 | -10.85 |
| `CN(Cc1cccnc1)c1nc(-c2ccccn2)nc2c1CCNCC2` | 14.67 & 7.074 | -7.535 |
| `O=C(O)C(F)(F)F.[H][C@@]12CN(CC)C[C@]1([H])[C@@H](OC)CCN2C(=O)c1cc(C)nn1CC` | -6.378 & -48.36 | -10.72 & -9.02 |
| `O=C(O)C(F)(F)F.[H][C@@]12CN(Cc3ccc(F)cc3)C[C@]1([H])C(=O)N(CCOC)C2` | -24.95 | -14.36 |
| `CN1N=C(C(=O)N2CCCC(CCc3ccccc3)C2)CCC1=O` (configuration not stated) | 7.987 | 8.601 |
| `OCc1ccc(-c2nccn2CCC2=CCCCC2)o1` | 16.59 & 21.04 | 6.323 |
| `CC(C)c1nc(CN(CC(N)=O)C(C)C)cs1` | 1.761 | -9.915 |
| `COC(=O)CC(c1ccccc1)c1oc(C)cc(=O)c1O` (configuration not stated) | -28.8 | -12.55 |
| `COCCn1c2c(ccc1=O)CC(NC(=O)c1cscn1)CC2` (configuration not stated) | -7.44 | -32.98 |

The last 6 entries again:

| compound | Mtb glucose medium | Mtb cholesterol medium |
|---|---|---|
| `O=C(O)C(F)(F)F.[H][C@@]12CN(Cc3ccc(F)cc3)C[C@]1([H])C(=O)N(CCOC)C2` | -24.95 | -14.36 |
| `CN1N=C(C(=O)N2CCCC(CCc3ccccc3)C2)CCC1=O` (configuration not stated) | 7.987 | 8.601 |
| `OCc1ccc(-c2nccn2CCC2=CCCCC2)o1` | 16.59 & 21.04 | 6.323 |
| `CC(C)c1nc(CN(CC(N)=O)C(C)C)cs1` | 1.761 | -9.915 |
| `COC(=O)CC(c1ccccc1)c1oc(C)cc(=O)c1O` (configuration not stated) | -28.8 | -12.55 |
| `COCCn1c2c(ccc1=O)CC(NC(=O)c1cscn1)CC2` (configuration not stated) | -7.44 | -32.98 |